# For at least one compound, name, drawing or mass did not settle the structure.
# Experiments:
# [1] = UV-vis absorption maximum (band shift) of liposome-associated fluorescein dyes; format: physicochemical; settings: DOTAP/DOPC 50/50 liposomes, 25 mM
# Method: As an example, in table 1 the results from some experiments are given. For comparison as well a formulation with anionic lipids was performed. For the anionic liposomes, most of the dye is lost during diafiltration, while for the cationic liposomes a large molar fraction of the dye remains immobilized in the lioposme suspension. […] For the CF experiments a lower bulk concentration of the dye was selected, because in that case binding is so strong, that for higher concentrations the liposomes will be destabilized due to the sterical hindrance by the CF molecules. The fraction of dye which was found immobilized in the suspensions from cationic liposomes was much higher that for the (anionic) DOPG containing liposomes. A band shift (λ max) in the absorption spectrum was observed, which increased as AF<F<CF, indication increasing binding strength. On the contrary, for the DOPG liposomes, no shift of the absorption maximum occurred. This can be seen most clearly in FIG. 1, where the complete spectra for the free and the liposomal dyes are depicted. All stages of formulation are monitored by HPLC analysis (lipid and drug) and by UV-vis spectroscopy. In HPLC analysis a slight loss of material after extrusion may be observed. UV-vis spectroscopy serves as a qualitative means in order to control formulation efficacy. The UV-vis spectra of the dye are shifted on binding to the lipid. […]
# [2] = Diafiltration: retention of fluorescein dyes in liposome suspension (direct loading); format: physicochemical
# Excerpt: Liposomes may be formed by the well-known film method, such as described in the literature.[1] Briefly, from the organic solution of the lipid, or the lipid plus the drug, the solvent is evaporated, and a thin film of lipid (or lipid plus drug) is formed at the inner wall of a flask. The thin molecular film is resuspended in an aqueous phase, which contains the dye, and which may contain further components such as buffers, ions, cryoprotectants, etc. A typical formulation consists of a suspension of 25 mM DOTAP/DOPC 1:1, which is resuspended by a 5 mM solution of the dye.
# As an example, in table 1 the results from some experiments are given. For comparison as well a formulation with anionic lipids was performed. […]
# Separation of low molecular compounds from the liposomal suspensions Diafiltration techniques were used to separate low molecular components from the liposomal suspensions. For the above described 15 mM DOTAP/DOPC 1:1 formulations with 5 mM dye in the aqueous phase, ca. 50% of the dye was retained in the liposome suspension for AF, and 60% was retained for F. With 0.5 mM of CF, virtually 100% of the dye was retained in the solution (the amount of released dye was monitored by UV-vis)spectroscopy.
structure (smiles),measurement,setting,value
"O=C1OC2(c3ccc(O)cc3Oc3cc(O)ccc32)c2ccccc21 [F, fluorescein]",λ max,[1],502.2 nm
same,dye retained in the liposome suspension after diafiltration,"[2]; 15 mM DOTAP/DOPC 1:1, 5 mM dye in the aqueous phase",60%
same,Conc. marker after diafiltration,"[2]; DOTAP/DOPC 50/50 liposomes, 25 mM, conc. before diafiltration […]",1000 µg/mL

# — US20100178243A1, “Novel method of stabilizing diagnostic and therapeutic compounds in a cationic carrier system” (MediGene AG, priority 2002, published 2010)
